The exact form of at least one protein or probe is not confirmed. For some assays here: Negatives hold for the conditions tested. For some assays here: The comparison behind a weaker result is the experiment's own reference, which may not be listed here.
Experiments:
Test in all cases: EMSA
[1] = target: DDX43 E400Q (Bombyx mori (BmN4 cDNA)) (UniProt H9JL58); conditions: 1 mM Mg2+, EMSA: 25 mM HEPES-KOH pH 7.3, 50 mM K-acetate, 1 mM Mg-acetate, 1 mM DTT, 5 nM RNA, 0.5 uM His-DDX43, +/-0.1 mM ATP, 26 C 10 min. Ago3 release: 20 mM HEPES-KOH pH 7.3, recombinant protein, protein details: His (pET-47b), label: 5' 32P
[2] = target: DDX43 WT (Bombyx mori (BmN4 cDNA)) (UniProt H9JL58); conditions: EMSA: 25 mM HEPES-KOH pH 7.3, 50 mM K-acetate, 1 mM Mg-acetate, 1 mM DTT, 5 nM RNA, 0.5 uM His-DDX43, +/-0.1 mM ATP, 26 C 10 min. Ago3 release: 20 mM HEPES-KOH pH 7.3, recombinant protein, protein details: His (pET-47b), label: 5' 32P
[3] = test system: DDX43 deltaKH (Bombyx mori (BmN4 cDNA)); conditions: 1 mM Mg2+ (hardly bound), EMSA: 25 mM HEPES-KOH pH 7.3, 50 mM K-acetate, 1 mM Mg-acetate, 1 mM DTT, 5 nM RNA, 0.5 uM His-DDX43, +/-0.1 mM ATP, 26 C 10 min. Ago3 release: 20 mM HEPES-KOH pH 7.3, recombinant protein, protein details: His (pET-47b), label: 5' 32P
[4] = target: DDX43 D399A (Bombyx mori (BmN4 cDNA)) (UniProt H9JL58); conditions: 1 mM Mg2+, EMSA: 25 mM HEPES-KOH pH 7.3, 50 mM K-acetate, 1 mM Mg-acetate, 1 mM DTT, 5 nM RNA, 0.5 uM His-DDX43, +/-0.1 mM ATP, 26 C 10 min. Ago3 release: 20 mM HEPES-KOH pH 7.3, recombinant protein, protein details: His (pET-47b), label: 5' 32P

“GGUCUGAUUUCGAUCUGGUUCCCUGGAACAAAAGUGGCAG [40nt RNA]”: binds ([1]; 0.1 mM ATP); no binding ([1]; no ATP); no binding ([2]; 0.1 mM ATP, 1 mM Mg2+ (dissociated)). “GGUCUGAUUUCGAUCUGGUUCCCUGGAACAAAAGUGGCAG [40nt RNA]”: binds ([2]; no ATP, 1 mM Mg2+); no binding ([3]; 0.1 mM ATP); no binding ([3]; no ATP). “GGUCUGAUUUCGAUCUGGUUCCCUGGAACAAAAGUGGCAG [40nt RNA]”: binds more weakly ([4]; 0.1 mM ATP); binds more weakly ([4]; no ATP).

Source: PMC8025031
